Numbering of substitutions follows the chain as printed. Like-named read-outs stand apart in the source and are kept apart here. No constants are given. Whether binding was seen depends on the method and setting. Binding seen in cells or lysates may run through a third protein. A yes stands for co-enrichment or nearness to the bait. Other partners may have been found. Sequences can lack the tags named with a protein.
B1: GORAB (protein, UniProt Q5T7V8 1-369)
chain: MAQGWAGFSEEELRRLKQTKDPFEPQRRLPAKKSRQQLQREKALVEQSQKLGLQDGSTSLLPEQLLSAPKQRVNVQKPPFSSPTLPSHFTLTSPVGDGQPQGIESQPKELGLENSHDGHNNVEILPPKPDCKLEKKKVELQEKSRWEVLQQEQRLMEEKNKRKKALLAKAIAERSKRTQAETMKLKRIQKELQALDDMVSADIGILRNRIDQASLDYSYARKRFDRAEAEYIAAKLDIQRKTEIKEQLTEHLCTIIQQNELRKAKKLEELMQQLDVEADEETLELEVEVERLLHEQEVESRRPVVRLERPFQPAEESVTLEFAKENRKCQEQAVSPKVDDQCGNSSSIPFLSPNCPNQEGNDISAALAT
B2: VIPAS39 (protein, UniProt Q9H9C1 1-493)
chain: MNRTKGDEEEYWNSSKFKAFTFDDEDDELSQLKESKRAVNSLRDFVDDDDDDDLERVSWSGEPVGSISWSIRETAGNSGSTHEGREQLKSRNSFSSYAQLPKPTSTYSLSSFFRGRTRPGSFQSLSDALSDTPAKSYAPELGRPKGEYRDYSNDWSPSDTVRRLRKGKVCSLERFRSLQDKLQLLEEAVSMHDGNVITAVLIFLKRTLSKEILFRELEVRQVALRHLIHFLKEIGDQKLLLDLFRFLDRTEELALSHYREHLNIQDPDKRKEFLKTCVGLPFSAEDSAHIQDHYTLLERQIIIEANDRHLESAGQTEIFRKHPRKASILNMPLVTTLFYSCFYHYTEAEGTFSSPVNLKKTFKIPDKQYVLTALAARAKLRAWNDVDALFTTKNWLGYTKKRAPIGFHRVVEILHKNNAPVQILQEYVNLVEDVDTKLNLATKFKCHDVVIDTYRDLKDRQQLLAYRSKVDKGSAEEEKIDALLSSSQIRWKN
B3: SYAP1 (protein, UniProt Q96A49 1-352)
chain: MFRGLSSWLGLQQPVAGGGQPNGDAPPEQPSETVAESAEEELQQAGDQELLHQAKDFGNYLFNFASAATKKITESVAETAQTIKKSVEEGKIDGIIDKTIIGDFQKEQKKFVEEQHTKKSEAAVPPWVDTNDEETIQQQILALSADKRNFLRDPPAGVQFNFDFDQMYPVALVMLQEDELLSKMRFALVPKLVKEEVFWRNYFYRVSLIKQSAQLTALAAQQQAAGKEEKSNGREQDLPLAEAVRPKTPPVVIKSQLKTQEDEEEISTSPGVSEFVSDAFDACNLNQEDLRKEMEQLVLDKKQEETAVLEEDSADWEKELQQELQEYEVVTESEKRDENWDKEIEKMLQEEN
B4: MLEC (protein, UniProt Q14165 29-292)
chain: PGLGVAGVAGAAGAGLPESVIWAVNAGGEAHVDVHGIHFRKDPLEGRVGRASDYGMKLPILRSNPEDQILYQTERYNEETFGYEVPIKEEGDYVLVLKFAEVYFAQSQQKVFDVRLNGHVVVKDLDIFDRVGHSTAHDEIIPMSIRKGKLSVQGEVSTFTGKLYIEFVKGYYDNPKVCALYIMAGTVDDVPKLQPHPGLEKKEEEEEEEEYDEGSNLKKQTNKNRVQSGPRTPNPYASDNSSLMFPILVAFGVFIPTLFCLCRL

Sequences of proteins named here, by UniProt entry; tags and fusion partners are left off. A change or cut given only in a name is not applied to a line headed by its entry.
UniProt O95782: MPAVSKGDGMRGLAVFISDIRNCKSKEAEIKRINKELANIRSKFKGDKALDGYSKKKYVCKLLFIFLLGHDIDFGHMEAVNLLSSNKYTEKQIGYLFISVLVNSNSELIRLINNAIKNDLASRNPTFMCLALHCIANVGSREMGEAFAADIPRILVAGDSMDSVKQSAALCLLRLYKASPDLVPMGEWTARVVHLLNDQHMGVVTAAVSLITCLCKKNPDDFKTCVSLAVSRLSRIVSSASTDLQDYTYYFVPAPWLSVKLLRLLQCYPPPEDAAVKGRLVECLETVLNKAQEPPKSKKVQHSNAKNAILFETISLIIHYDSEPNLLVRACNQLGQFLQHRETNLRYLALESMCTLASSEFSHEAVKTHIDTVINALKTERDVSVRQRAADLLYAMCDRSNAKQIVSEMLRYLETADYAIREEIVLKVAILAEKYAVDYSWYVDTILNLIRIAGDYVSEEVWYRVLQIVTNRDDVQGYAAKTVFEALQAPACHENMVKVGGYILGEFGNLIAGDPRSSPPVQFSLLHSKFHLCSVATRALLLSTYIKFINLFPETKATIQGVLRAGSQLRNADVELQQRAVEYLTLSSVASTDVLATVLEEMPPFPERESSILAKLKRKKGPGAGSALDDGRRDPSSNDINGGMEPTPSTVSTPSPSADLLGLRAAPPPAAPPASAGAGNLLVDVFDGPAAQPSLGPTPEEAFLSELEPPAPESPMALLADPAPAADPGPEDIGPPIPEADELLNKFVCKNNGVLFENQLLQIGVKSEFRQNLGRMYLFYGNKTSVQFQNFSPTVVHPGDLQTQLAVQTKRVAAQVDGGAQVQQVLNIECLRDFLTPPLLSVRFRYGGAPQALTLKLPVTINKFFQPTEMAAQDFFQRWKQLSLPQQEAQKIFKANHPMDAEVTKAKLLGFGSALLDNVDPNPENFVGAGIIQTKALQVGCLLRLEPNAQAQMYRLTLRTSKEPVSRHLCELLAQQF
UniProt O94973: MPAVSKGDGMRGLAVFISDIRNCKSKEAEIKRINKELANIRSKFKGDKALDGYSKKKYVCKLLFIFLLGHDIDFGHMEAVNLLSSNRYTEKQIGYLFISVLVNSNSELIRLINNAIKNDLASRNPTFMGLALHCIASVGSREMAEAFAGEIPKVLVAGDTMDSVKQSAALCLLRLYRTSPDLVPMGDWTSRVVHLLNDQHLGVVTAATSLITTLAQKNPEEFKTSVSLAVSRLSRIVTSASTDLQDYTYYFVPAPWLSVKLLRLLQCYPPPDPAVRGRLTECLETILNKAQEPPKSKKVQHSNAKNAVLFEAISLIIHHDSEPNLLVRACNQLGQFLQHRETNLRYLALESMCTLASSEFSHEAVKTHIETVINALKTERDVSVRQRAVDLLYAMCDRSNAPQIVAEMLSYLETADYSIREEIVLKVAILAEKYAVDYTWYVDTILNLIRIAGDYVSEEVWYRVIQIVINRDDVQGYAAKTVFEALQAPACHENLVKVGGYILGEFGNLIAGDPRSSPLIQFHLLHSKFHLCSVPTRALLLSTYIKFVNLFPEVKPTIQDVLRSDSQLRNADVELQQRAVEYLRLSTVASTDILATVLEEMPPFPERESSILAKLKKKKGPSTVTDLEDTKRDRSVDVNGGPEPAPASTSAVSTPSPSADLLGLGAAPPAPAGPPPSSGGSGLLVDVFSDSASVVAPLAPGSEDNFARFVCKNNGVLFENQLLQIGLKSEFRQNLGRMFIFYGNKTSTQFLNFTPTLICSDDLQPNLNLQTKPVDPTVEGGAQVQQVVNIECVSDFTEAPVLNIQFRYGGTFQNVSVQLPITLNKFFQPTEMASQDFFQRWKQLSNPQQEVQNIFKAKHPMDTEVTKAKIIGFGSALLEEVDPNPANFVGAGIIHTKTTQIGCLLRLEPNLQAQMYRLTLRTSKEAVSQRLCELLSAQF
UniProt Q16740: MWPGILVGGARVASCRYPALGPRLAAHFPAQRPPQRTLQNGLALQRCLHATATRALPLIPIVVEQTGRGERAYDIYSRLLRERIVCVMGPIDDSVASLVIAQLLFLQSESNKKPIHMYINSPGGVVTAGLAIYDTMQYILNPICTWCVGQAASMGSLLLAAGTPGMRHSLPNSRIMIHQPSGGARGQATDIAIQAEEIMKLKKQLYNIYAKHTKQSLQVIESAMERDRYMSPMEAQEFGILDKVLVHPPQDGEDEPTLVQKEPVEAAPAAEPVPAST
UniProt Q8IUD2: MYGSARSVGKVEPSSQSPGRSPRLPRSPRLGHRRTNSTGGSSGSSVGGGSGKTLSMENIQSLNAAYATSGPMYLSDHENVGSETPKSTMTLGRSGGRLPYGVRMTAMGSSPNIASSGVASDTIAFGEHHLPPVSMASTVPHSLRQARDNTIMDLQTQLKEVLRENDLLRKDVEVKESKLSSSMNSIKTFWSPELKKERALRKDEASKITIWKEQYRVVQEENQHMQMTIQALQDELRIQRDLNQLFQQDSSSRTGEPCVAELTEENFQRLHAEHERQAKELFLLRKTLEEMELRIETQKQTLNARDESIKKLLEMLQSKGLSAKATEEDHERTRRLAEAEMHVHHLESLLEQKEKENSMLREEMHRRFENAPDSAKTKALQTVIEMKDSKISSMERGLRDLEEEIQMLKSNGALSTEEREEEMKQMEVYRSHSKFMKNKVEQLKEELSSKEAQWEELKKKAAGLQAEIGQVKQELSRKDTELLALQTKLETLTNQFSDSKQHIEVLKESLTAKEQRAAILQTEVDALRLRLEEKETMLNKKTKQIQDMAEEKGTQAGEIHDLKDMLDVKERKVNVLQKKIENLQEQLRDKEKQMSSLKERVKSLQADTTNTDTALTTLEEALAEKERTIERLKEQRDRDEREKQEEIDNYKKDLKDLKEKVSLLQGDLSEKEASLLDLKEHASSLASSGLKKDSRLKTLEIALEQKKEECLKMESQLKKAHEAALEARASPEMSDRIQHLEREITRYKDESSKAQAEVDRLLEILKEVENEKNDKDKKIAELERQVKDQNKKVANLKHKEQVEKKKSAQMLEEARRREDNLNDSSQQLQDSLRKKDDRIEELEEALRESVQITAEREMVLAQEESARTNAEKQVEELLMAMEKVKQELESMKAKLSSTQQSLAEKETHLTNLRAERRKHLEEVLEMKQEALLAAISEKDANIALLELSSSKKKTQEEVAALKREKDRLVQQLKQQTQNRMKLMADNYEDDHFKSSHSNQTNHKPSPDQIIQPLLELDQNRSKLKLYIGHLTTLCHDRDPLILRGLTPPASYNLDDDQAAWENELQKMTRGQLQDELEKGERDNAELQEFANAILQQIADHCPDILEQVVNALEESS
UniProt Q14789: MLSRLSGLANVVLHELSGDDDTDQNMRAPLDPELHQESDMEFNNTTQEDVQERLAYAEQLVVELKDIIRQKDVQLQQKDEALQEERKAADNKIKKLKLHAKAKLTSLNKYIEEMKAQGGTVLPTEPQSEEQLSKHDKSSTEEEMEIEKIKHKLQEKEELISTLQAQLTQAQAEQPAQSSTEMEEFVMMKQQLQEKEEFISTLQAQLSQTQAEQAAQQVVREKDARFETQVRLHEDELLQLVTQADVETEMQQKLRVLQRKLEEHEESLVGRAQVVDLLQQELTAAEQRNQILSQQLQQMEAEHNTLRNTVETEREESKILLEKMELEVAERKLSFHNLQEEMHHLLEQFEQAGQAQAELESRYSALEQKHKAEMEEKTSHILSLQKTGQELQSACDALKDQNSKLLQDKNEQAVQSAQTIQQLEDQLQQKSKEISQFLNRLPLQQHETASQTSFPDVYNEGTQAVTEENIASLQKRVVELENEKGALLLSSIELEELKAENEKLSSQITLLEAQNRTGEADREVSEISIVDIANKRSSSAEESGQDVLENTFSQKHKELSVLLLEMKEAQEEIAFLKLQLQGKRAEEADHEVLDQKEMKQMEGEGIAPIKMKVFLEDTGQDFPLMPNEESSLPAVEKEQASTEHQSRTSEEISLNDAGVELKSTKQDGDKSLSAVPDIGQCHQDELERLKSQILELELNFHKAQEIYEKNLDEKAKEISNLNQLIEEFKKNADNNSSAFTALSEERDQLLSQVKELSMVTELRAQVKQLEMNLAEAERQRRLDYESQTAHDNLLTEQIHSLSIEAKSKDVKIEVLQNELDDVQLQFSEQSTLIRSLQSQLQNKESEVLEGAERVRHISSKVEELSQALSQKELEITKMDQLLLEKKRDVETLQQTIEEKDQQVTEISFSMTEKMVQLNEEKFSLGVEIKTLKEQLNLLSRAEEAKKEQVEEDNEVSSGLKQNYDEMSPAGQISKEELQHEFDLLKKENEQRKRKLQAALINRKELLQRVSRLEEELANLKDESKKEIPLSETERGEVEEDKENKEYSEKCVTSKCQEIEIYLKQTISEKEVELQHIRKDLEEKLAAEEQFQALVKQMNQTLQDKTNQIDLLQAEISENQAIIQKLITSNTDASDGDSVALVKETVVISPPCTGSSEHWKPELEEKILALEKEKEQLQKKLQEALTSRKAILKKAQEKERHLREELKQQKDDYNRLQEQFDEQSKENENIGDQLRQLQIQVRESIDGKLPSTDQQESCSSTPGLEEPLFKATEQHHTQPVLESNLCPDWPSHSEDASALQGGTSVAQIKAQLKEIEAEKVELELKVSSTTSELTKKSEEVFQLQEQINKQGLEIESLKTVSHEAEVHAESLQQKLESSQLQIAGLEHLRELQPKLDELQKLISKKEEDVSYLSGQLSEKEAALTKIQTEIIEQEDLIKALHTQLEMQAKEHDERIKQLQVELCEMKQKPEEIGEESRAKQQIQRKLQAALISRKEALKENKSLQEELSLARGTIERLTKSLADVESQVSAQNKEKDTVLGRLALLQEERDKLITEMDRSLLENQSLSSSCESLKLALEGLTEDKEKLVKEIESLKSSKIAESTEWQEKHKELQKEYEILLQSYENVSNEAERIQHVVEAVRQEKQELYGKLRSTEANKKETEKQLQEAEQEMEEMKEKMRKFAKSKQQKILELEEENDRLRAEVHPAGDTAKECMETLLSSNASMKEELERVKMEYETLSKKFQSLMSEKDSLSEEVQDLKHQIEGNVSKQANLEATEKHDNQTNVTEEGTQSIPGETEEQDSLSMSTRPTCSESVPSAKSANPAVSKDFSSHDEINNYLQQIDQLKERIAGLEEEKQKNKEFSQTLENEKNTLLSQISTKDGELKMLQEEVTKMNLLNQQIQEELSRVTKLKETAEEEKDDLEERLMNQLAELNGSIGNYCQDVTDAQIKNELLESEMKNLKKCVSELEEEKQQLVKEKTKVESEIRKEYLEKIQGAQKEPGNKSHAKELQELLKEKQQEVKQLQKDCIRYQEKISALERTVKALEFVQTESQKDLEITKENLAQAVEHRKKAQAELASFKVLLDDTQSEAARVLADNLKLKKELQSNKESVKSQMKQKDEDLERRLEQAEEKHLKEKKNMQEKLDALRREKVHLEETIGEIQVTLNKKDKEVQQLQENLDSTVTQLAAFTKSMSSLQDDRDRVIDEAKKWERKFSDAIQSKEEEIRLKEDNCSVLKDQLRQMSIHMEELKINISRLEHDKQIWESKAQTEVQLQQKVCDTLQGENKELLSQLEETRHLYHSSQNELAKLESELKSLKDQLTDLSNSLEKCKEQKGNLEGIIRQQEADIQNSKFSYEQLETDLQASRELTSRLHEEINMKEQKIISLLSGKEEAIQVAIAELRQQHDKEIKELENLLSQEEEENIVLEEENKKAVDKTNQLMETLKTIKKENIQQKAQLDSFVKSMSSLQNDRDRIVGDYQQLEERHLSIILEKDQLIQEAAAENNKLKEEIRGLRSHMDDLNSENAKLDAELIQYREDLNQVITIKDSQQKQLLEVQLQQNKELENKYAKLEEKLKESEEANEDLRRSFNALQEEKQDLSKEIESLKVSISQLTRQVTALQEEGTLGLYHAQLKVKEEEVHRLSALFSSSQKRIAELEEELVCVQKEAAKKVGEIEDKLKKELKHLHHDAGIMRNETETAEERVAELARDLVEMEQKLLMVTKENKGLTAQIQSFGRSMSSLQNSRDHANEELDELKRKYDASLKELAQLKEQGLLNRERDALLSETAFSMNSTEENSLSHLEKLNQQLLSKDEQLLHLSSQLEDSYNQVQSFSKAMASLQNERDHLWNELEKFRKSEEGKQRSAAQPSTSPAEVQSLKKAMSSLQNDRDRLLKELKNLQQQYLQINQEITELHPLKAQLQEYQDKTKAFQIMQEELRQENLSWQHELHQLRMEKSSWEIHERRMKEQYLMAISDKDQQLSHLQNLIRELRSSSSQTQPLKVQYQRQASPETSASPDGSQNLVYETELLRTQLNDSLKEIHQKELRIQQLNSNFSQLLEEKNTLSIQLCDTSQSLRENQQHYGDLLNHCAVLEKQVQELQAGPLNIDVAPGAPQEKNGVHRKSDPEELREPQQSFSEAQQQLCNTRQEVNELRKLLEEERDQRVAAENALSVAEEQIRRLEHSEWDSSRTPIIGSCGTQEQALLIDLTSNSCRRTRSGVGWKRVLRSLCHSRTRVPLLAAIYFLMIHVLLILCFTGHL

Tests used:
Assay in all cases: proximity labelling; BioID: SCYL1-BirA variants induced in SILAC-labeled SCYL1 KO MCF-7 cells, 50 µM biotin for 18 h, lysis in RIPA buffer, streptavidin-agarose enrichment at room temperature for 2 h, quantitative LC-MS/MS against BirA-only cells
[1] = target: T1, SCYL1(S754A)-BirA-myc (human) (UniProt Q96KG9)
T1 sequence: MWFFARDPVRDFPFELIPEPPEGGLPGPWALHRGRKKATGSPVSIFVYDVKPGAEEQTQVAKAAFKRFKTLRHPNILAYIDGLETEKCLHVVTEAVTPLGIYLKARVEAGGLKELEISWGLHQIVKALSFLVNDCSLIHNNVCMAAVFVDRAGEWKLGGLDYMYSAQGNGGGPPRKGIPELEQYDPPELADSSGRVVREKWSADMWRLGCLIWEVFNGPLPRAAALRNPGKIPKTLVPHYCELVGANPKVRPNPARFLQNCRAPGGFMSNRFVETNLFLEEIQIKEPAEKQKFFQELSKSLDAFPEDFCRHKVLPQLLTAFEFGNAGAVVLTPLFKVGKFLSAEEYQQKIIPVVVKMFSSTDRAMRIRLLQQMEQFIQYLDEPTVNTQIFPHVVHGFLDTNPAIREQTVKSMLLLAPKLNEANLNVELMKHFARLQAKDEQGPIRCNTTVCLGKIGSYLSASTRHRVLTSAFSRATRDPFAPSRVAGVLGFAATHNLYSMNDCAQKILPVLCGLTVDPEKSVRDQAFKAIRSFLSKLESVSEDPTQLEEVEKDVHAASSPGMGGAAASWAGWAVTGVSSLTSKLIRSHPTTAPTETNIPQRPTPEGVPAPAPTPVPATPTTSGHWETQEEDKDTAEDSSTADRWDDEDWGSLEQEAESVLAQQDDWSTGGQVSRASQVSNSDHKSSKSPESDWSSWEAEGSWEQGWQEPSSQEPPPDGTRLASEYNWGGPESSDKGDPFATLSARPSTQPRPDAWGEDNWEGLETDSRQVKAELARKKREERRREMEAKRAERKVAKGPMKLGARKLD

[2] = target: T2, SCYL1(S754E)-BirA-myc (human) (UniProt Q96KG9)
T2 sequence: T1 sequence with A754E

[3] = target: T1, SCYL1(S754A)-BirA-myc (human); remark: listed apart in the source
[4] = target: T2, SCYL1(S754E)-BirA-myc (human); remark: listed apart in the source

| Molecule | binding [1] | binding [2] | binding [3] | binding [4] |
| --- | --- | --- | --- | --- |
| AP2A1 (from UniProt O95782 1-977) | binds | binds |  |  |
| AP2A2 (from UniProt O94973 1-939) | binds | binds |  |  |
| CLPP (from UniProt Q16740 57-277) | binds | binds |  |  |
| ERC1 (from UniProt Q8IUD2 1-1116) | binds | binds |  |  |
| GOLGA4 (from UniProt Q13439 1-2230) | binds | binds |  |  |
| GOLGB1 (from UniProt Q14789 1-3259) | binds | binds |  |  |
| MRPS11 (human (endogenous in MCF-7)) | binds | binds |  |  |
| SYNE1 (from UniProt Q8NF91 1-8797) | binds | binds |  |  |
| B1 |  |  | binds | binds |
| B2 |  |  | binds | binds |
| B3 |  |  | binds | binds |
| B4 |  |  | binds | binds |

— article PMC9365812
